# Article PMC6191456 (Scientific Reports, 2018)
# No constants are given. Whether binding was seen depends on the method and setting. Some binding calls cover weakened binding; strength is not graded here.
# T1: ClpA, the ATPase unit of ClpAP protease (E. coli, UniProt P0ABH9 1-758)
# T1 construct: ClpA, ATP-dependent unfoldase subunit of the ClpAP protease, E. coli; also called ClpA ATPase; source: purified by a published protocol [55]
# T1 sequence (looked up): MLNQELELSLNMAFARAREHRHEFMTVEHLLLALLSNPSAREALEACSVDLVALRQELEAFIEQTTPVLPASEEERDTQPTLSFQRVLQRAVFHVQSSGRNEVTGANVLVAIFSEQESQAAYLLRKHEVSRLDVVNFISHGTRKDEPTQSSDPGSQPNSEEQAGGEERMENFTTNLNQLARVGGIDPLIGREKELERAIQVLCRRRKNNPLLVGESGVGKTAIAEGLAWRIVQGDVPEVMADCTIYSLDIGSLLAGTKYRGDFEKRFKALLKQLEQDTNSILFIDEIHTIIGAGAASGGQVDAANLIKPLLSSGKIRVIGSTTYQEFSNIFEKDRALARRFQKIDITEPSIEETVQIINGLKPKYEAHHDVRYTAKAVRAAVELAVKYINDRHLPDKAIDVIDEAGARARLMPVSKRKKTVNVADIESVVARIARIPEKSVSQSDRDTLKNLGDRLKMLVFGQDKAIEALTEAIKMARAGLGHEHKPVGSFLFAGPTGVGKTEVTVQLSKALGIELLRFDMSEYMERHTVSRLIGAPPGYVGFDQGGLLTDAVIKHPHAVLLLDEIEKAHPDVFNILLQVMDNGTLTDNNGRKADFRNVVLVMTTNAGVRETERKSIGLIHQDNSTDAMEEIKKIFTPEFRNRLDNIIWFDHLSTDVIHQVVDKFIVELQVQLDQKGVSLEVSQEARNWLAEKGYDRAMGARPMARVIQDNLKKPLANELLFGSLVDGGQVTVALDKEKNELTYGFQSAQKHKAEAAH
# T2: complex of ClpA with TrfA (E. coli | not stated) (UniProt P0ABH9)
# T2 sequence 1: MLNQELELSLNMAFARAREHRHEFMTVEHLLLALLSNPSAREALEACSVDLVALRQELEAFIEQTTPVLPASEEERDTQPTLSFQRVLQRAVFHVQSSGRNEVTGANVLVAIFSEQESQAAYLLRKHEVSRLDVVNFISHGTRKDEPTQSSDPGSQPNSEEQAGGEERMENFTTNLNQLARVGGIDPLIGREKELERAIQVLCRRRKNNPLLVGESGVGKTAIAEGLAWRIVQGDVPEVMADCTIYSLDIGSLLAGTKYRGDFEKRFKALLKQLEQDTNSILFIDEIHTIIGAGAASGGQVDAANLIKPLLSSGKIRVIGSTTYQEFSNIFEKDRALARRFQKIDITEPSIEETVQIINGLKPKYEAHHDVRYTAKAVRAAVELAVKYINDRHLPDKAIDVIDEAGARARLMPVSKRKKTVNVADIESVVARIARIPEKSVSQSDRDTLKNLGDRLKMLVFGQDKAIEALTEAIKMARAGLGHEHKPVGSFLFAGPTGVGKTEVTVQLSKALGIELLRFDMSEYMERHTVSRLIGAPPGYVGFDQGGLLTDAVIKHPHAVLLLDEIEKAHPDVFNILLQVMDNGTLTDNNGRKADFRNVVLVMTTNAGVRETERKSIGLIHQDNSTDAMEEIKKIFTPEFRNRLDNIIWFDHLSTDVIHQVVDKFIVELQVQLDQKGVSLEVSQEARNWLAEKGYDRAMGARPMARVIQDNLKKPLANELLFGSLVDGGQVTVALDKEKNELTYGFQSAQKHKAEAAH
# T2 sequence 2: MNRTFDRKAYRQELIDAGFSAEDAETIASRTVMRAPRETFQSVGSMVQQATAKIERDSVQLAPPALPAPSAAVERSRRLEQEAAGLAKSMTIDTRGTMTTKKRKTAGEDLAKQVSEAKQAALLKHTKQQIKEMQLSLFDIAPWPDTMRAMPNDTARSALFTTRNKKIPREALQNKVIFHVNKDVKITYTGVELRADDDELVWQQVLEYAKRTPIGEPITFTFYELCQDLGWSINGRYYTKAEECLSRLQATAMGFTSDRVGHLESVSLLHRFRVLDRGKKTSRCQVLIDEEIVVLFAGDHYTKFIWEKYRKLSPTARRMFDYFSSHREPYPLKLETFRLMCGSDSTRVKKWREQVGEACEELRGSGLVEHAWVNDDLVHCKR
# B1: TrfA (protein, UniProt P07676 1-382)
# chain: MNRTFDRKAYRQELIDAGFSAEDAETIASRTVMRAPRETFQSVGSMVQQATAKIERDSVQLAPPALPAPSAAVERSRRLEQEAAGLAKSMTIDTRGTMTTKKRKTAGEDLAKQVSEAKQAALLKHTKQQIKEMQLSLFDIAPWPDTMRAMPNDTARSALFTTRNKKIPREALQNKVIFHVNKDVKITYTGVELRADDDELVWQQVLEYAKRTPIGEPITFTFYELCQDLGWSINGRYYTKAEECLSRLQATAMGFTSDRVGHLESVSLLHRFRVLDRGKKTSRCQVLIDEEIVVLFAGDHYTKFIWEKYRKLSPTARRMFDYFSSHREPYPLKLETFRLMCGSDSTRVKKWREQVGEACEELRGSGLVEHAWVNDDLVHCKR
# B2: ParE toxin of the parDE system from the broad host range plasmid RK2 (natural protein)
# chain: MTAYILTAEAEADLRGIIRYTRREWGAAQVRRYIAKLEQGIARLAAGEGPFKDMSELFPALRMARCEHHYVFCLPRAGEPALVVAILHERMDLMTRLADRLKG
# notes: also called GST-ParE
# Legend:
# [1] = target: T1, ClpA, the ATPase unit of ClpAP protease; test: SPR; ParE tested on the complex of ClpA with TrfA (Supplementary Fig. S7); both purified
# [2] = target: T2, complex of ClpA with TrfA (E. coli | not stated); test: as above
Binder,binding [1],binding [2]
B1,binds,–
B2,–,no binding
